This test concerns the target eIF4AIII (Drosophila melanogaster (endogenous in S2 cells)) (UniProt Q9VHS8). Kind of test: co-sedimentation; 10–50% sucrose gradient (polysome profiling) of S2 cell cytoplasmic extracts, 38,000 rpm 160 min 4°C; fractions assayed by Western blotting.

Sequences of proteins named here, by UniProt entry; tags and fusion partners are left off.
UniProt Q9VHS8: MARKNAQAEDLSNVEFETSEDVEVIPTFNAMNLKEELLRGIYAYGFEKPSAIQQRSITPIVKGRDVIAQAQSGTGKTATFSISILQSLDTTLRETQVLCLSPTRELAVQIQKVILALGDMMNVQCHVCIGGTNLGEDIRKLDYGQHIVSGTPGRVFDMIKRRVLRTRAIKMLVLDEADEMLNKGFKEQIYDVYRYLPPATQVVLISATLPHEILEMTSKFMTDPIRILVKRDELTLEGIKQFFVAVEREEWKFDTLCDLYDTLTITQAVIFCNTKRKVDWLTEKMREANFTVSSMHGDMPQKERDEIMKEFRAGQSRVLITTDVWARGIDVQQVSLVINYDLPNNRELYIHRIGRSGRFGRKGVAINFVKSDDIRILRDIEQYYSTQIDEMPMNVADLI
UniProt Q9V535: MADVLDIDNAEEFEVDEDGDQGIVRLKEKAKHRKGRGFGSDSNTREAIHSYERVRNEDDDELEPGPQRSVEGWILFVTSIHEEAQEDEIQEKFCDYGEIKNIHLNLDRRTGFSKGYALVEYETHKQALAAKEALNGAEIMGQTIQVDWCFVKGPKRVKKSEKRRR

No constants are given. Whether binding was seen depends on the method and setting. Binding seen in cells or lysates may run through a third protein.

As for Y14 (from UniProt Q9V535 1-165), the binding entry is “no binding”.

These data come from PMC5158136.
